Measured values taken from publication PMC8287685, “Archaeal Orc1 protein interacts with T-rich single-stranded DNA”.

Key:
[1] = target: T1, ApOrc1 (Orc1-1) (Aeropyrum pernix) (UniProt Q9YEV6); test: EMSA; details: 100-300 nM protein, EMSA: 40 mM HEPES-KOH pH 8, 25 mM [truncated], 5% PAGE in TBE, recombinant protein
T1 sequence (looked up, limits assumed): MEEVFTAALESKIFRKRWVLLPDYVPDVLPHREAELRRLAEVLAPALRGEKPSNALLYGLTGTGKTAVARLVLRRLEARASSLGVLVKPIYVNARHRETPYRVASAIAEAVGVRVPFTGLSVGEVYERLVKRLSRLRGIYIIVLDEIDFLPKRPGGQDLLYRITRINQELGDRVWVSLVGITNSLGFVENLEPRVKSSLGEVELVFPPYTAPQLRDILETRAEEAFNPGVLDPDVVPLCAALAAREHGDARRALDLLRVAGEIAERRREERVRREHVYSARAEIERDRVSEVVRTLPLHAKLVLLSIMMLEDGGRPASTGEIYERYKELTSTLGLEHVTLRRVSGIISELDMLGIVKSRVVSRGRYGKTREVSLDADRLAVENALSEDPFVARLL

[2] = target: T1, ApOrc1 (Orc1-1) (Aeropyrum pernix); test: SPR; details: SPR: HBS-EP + 10 mM MgCl2, 2 mM ATP, recombinant protein, single-stranded DNA
[3] = target: T1, ApOrc1 (Orc1-1) (Aeropyrum pernix); test: BLI; details: recombinant protein, single-stranded DNA
[4] = target: T1, ApOrc1 (Orc1-1) (Aeropyrum pernix); test: MST; details: recombinant protein; label: 5' biotin (BLI, SPR), fluorescent (MST); single-stranded DNA

Row | Sequence | binding result ([2]; label: 5' biotin) | binding result ([3]; label: 5' biotin) | also measured
1 | AGCTCACAATTCCACACAACATACGAGCCGGAAGCATAAAGTGTAAAGCCTGGGGTGCCTAATGAGTGAGCTAACTCACATTAATTGCGTTGCGCTCACTGCCCGCTTTCCAGTCGGGAAACCTGTCGT (double strand) [pUC18 fragment dsDNA] |  |  | binding result ([1]; fuzzy band only, label: Alexa555-dCTP by TdT): binds more weakly
2 | CAAATCAAGCTAGAAACAAACAAAGACACA [R1 top] | binds more weakly | binds more weakly | 
3 | CAAATCAAGCTAGAAACAAACAAAGACACACTATAATCCAGAACTGCACAGCCTGA [R top] |  |  | binding result [4]: binds more weakly; binding result ([3]; label: 5' biotin (BLI, SPR), fluorescent (MST)): binds more weakly
4 | CTATAATCCAGAACTGCACAGCCTGA [R2 top] | binds more weakly | binds more weakly | 
5 | GAAGCGTATACTCCTCCCGAATAGTGCTCTTGAAGAATGCCAATATAATGATACAAAAACCCAGTTTTAAA [L top] |  | binds more weakly | 
6 | GCAGCCCTGGTTAAAAACAAGGTTTATAAATATTGGTTTAAAAGCAGGTTAAAAGACAGGTTAGCGGTGG [ssDNA unspecific (RK2 AT-rich region)] |  |  | binding result ([2]; response similar to R top, label: 5' biotin): binds more weakly
7 | TCAGGCTGTGCAGTTCTGGATTATAG [R2 bottom] | binds more weakly | binds more weakly | 
8 | TCAGGCTGTGCAGTTCTGGATTATAGTGTGTCTTTGTTTGTTTCTAGCTTGATTTG [R bottom] |  |  | binding result [4]: binds; binding result ([2]; no ATP, label: 5' biotin (BLI, SPR), fluorescent (MST)): binds more weakly
9 | TTTTTTTTTTTTTTTTTTTTTTTTTTTTTTTTTTTTTTTTTTTTTTTTTTTTTTTTTTTTTTTTTTTTTT [polyT(70)] |  |  | binding result ([1]; faint band, label: 5' Cy3, single-stranded DNA): binds more weakly

For at least one entry, the source does not settle the construct or the ends of the probe. A weaker result is weaker than the reference pair of the same experiment. For some assays here: At least one verdict rests on a figure or table, not on a statement of the authors. Tags and fusion partners may be left off the protein sequences shown.
